Results are given in words; binding and its absence hold for the method and conditions named. In cells and extracts the contact can be indirect. Some results given as binding are weak or reduced against the parent protein; the word gives no strength.

By UniProt entry, the sequences of proteins in these tests, tags left out. Where a name states a change or a piece, a line headed by the entry shows the natural chain unless it says otherwise.
UniProt P11387: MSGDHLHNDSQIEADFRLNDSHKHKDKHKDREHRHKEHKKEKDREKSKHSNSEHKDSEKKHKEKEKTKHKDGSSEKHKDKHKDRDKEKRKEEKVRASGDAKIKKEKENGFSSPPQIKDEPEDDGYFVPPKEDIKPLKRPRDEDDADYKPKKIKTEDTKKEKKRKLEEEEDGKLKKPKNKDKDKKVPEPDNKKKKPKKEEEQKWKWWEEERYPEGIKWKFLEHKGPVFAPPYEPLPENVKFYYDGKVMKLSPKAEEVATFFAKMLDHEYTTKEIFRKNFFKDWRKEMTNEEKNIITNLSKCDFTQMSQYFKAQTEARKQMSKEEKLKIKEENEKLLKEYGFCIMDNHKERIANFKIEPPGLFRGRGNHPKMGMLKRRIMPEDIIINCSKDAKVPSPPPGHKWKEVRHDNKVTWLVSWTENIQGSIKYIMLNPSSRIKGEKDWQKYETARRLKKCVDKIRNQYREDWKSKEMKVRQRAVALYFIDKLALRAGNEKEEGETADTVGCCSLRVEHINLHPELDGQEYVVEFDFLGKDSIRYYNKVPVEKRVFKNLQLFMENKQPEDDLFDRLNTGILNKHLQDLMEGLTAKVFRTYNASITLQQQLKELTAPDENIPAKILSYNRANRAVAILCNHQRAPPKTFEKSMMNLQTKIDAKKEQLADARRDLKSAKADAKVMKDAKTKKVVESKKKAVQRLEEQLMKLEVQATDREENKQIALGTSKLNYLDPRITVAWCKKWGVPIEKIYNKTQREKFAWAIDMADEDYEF

This passage reports binding results from patent publication US20230082929A1, “METHODS OF GENERATING AND USING SENESCENT-INDUCED CELLS FOR TREATMENT OF CANCER AND COMPOSITIONS RELATING THERETO” (The Wistar Institute of Anatomy and Biology, priority 2020, published 2023).

The experiment addresses GST-tagged cGAS (Addgene, Cat. No: 108676) [GST: P08515]. The experiment can be described thus: GST pull-down: GST-cGAS on glutathione-sepharose beads with His-tagged TOP1, anti-TOP1 immunoblot.

For “His-tagged TOP1 (Sino Biological, Cat. No: 17455-H07B) (from UniProt P11387 1-765) (enzyme)”, the binding result is reported as “binds”.
